Experimental data published in PMC9257321.
Results are given in words; binding and its absence hold for the method and conditions named. In cells and extracts the contact can be indirect.

Sequences of proteins named here, by UniProt entry; tags and fusion partners are left off.
UniProt Q99814: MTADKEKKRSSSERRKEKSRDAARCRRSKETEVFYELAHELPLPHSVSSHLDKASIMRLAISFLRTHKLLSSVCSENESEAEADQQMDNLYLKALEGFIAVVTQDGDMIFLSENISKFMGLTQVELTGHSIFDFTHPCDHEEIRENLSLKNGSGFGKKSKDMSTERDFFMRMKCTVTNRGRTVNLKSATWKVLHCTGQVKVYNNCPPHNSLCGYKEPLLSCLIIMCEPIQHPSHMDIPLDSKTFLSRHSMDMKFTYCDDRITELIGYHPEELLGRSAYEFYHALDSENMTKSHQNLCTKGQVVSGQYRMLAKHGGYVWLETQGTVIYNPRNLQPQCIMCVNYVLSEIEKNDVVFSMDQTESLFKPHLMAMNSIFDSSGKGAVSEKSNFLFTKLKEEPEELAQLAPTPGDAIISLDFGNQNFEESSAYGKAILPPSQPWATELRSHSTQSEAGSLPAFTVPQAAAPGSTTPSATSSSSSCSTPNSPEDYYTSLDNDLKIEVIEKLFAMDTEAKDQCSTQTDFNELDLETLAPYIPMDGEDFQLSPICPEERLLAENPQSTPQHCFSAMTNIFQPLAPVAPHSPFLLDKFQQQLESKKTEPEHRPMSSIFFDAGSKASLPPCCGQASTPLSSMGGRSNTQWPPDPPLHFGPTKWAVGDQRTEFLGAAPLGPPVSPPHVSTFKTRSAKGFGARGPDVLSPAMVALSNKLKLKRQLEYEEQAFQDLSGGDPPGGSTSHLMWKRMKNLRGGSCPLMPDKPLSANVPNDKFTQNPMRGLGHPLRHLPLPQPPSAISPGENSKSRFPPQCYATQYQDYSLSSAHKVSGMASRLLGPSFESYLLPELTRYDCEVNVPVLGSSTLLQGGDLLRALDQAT

Biological target: HIF-2α (human (endogenous in 786-O)) (UniProt Q99814)
Test: co-IP; lysates of 786-O-Vector and 786-O-MIIP cells immunoprecipitated with anti-HIF-2α antibody and protein A + G Sepharose beads; Western blot for RACK1, HSP90 and MIIP

B1: migration and invasion inhibitory protein (MIIP) (protein, UniProt Q5JXC2 1-388)
chain: MVEAEELAQLRLLNLELLRQLWVGQDAVRRSVARAASESSLESSSSYNSETPSTPETSSTSLSTSCPRGRSSVWGPPDACRGDLRDVARSGVASLPPAKCQHQESLGRPRPHSAPSLGTSSLRDPEPSGRLGDPGPQEAQTPRSILAQQSKLSKPRVTFSEESAVPKRSWRLRPYLGYDWIAGSLDTSSSITSQPEAFFSKLQEFRETNKEECICSHPEPQLPGLRESSGSGVEEDHECVYCYRVNRRLFPVPVDPGTPCRLCRTPRDQQGPGTLAQPAHVRVSIPLSILEPPHRYHIHRRKSFDASDTLALPRHCLLGWDIFPPKSEKSSAPRNLDLWSSVSAEAQHQKLSGTSSPFHPASPMQMLPPTPTWSVPQVPRPHVPRQKP
binding: no binding
